Experimental data reported in the supplement of paper PMC10849652.
The other results are listed elsewhere or left out.

Amino acid sequences for entries named in this document (tags omitted). A change or cut given only in a name is not applied to a line headed by its entry.
UniProt P48723: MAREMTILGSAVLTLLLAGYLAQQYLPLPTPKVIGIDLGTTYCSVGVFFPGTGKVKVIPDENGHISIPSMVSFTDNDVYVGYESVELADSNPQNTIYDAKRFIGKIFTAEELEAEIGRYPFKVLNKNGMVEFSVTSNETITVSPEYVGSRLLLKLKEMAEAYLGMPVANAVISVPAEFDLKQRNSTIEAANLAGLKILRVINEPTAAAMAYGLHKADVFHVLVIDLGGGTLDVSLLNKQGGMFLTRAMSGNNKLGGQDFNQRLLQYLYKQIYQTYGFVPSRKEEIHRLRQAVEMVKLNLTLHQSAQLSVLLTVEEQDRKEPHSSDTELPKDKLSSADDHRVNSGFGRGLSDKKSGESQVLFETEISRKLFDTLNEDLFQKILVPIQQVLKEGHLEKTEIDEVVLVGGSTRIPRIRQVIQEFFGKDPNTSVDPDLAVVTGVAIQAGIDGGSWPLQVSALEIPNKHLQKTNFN
UniProt Q0VDF9: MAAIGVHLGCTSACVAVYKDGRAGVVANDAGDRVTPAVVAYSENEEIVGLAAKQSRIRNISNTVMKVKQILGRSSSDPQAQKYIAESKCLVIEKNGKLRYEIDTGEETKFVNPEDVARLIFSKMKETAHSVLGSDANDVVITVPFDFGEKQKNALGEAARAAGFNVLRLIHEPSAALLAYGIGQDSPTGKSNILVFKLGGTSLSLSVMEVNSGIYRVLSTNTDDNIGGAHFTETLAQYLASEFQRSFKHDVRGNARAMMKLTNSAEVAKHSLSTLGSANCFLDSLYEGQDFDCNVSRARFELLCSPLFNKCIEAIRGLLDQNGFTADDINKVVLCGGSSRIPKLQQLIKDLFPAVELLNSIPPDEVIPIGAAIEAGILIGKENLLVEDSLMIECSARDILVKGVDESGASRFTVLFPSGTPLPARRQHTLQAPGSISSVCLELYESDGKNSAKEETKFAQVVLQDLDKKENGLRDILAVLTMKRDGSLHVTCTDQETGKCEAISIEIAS
UniProt Q00839, whole entry, looked up: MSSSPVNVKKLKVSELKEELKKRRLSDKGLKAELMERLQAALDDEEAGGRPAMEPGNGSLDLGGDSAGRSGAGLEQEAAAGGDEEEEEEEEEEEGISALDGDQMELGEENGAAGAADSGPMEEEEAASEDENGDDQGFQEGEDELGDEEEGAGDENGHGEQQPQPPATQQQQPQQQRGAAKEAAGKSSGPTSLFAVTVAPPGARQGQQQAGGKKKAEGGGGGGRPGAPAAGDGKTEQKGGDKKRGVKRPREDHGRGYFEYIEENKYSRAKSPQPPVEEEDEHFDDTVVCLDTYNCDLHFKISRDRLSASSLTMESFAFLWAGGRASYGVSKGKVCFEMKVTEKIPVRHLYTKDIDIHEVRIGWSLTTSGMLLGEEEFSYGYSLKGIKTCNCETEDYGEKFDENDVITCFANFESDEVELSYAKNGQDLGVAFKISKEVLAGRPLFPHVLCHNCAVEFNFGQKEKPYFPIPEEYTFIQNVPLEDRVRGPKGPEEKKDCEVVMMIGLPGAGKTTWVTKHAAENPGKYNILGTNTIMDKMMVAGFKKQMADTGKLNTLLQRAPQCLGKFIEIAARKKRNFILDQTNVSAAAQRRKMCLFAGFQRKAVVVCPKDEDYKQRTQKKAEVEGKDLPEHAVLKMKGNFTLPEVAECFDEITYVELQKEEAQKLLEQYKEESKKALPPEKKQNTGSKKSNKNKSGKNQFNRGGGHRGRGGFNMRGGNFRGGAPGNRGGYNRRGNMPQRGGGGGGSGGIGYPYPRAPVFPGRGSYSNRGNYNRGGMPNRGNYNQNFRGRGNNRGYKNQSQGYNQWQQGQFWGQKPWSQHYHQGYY
UniProt Q14103: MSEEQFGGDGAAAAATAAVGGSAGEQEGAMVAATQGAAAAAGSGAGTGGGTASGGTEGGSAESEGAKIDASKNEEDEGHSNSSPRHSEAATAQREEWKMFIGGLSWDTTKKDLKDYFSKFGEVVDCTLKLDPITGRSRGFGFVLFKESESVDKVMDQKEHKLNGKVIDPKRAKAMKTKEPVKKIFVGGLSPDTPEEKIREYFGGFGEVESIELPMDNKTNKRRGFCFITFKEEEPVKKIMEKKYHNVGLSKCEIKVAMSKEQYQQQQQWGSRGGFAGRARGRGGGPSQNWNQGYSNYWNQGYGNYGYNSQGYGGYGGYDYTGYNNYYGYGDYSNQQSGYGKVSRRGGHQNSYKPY
UniProt P52789: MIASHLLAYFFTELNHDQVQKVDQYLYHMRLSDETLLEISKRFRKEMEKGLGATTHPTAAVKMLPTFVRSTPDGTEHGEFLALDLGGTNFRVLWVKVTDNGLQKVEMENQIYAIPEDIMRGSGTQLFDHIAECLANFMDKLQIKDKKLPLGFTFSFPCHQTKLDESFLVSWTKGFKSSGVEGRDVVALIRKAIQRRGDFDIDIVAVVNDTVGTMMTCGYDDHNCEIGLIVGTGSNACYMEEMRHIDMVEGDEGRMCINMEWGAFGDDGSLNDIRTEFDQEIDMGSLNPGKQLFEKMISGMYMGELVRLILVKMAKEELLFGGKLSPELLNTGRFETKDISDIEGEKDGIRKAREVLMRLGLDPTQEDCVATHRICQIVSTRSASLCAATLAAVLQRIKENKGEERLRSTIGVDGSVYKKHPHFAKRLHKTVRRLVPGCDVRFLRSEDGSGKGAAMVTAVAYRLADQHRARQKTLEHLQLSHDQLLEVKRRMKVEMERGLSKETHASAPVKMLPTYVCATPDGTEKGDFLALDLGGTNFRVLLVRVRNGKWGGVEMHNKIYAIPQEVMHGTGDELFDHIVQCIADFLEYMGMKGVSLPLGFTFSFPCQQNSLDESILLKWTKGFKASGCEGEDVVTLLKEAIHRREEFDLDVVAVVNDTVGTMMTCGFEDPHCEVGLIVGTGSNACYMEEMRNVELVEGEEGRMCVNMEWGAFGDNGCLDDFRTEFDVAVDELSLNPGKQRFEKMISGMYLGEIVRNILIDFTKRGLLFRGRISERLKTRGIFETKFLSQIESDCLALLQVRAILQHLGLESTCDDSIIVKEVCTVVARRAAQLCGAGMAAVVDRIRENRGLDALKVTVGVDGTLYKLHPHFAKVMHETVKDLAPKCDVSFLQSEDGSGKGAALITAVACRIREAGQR
UniProt Q9NQG7: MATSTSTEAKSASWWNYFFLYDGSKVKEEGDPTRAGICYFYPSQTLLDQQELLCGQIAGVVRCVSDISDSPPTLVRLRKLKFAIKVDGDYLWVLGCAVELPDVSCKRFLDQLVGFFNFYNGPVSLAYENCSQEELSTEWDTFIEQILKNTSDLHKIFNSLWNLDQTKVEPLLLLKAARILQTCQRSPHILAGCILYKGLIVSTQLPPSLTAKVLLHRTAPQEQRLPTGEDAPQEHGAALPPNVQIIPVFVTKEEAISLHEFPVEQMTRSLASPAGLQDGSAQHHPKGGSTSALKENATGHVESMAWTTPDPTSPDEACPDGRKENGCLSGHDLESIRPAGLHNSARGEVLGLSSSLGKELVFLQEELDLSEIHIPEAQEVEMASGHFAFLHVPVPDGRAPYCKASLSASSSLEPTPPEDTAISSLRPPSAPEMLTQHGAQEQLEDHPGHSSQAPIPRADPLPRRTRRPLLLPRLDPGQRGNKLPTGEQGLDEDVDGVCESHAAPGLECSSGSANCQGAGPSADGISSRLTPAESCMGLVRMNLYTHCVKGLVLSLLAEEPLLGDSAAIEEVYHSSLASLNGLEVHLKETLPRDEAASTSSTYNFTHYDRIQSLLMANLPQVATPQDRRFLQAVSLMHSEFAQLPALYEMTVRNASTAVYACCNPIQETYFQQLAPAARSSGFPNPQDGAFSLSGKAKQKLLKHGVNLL
UniProt P14625, whole entry, looked up: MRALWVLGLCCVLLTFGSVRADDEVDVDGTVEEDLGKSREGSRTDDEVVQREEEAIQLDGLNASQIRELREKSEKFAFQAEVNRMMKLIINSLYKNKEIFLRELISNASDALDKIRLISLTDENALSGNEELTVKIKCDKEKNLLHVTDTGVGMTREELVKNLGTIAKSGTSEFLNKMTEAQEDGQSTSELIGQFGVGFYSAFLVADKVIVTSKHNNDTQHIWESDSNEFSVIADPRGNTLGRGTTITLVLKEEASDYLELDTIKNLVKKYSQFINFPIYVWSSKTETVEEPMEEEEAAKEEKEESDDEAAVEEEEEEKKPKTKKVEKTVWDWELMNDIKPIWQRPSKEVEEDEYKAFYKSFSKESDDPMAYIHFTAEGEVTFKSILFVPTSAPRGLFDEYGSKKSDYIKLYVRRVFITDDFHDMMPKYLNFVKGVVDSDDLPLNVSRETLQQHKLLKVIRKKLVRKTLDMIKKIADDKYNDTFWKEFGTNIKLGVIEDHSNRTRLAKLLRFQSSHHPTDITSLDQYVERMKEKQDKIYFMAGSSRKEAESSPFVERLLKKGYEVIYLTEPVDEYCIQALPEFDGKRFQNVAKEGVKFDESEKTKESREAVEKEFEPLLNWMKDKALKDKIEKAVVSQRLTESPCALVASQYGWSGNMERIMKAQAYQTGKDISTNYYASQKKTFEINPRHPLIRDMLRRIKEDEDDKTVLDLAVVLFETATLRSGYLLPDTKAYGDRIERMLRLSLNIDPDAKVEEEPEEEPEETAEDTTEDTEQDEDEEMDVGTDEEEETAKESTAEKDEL
UniProt O95757: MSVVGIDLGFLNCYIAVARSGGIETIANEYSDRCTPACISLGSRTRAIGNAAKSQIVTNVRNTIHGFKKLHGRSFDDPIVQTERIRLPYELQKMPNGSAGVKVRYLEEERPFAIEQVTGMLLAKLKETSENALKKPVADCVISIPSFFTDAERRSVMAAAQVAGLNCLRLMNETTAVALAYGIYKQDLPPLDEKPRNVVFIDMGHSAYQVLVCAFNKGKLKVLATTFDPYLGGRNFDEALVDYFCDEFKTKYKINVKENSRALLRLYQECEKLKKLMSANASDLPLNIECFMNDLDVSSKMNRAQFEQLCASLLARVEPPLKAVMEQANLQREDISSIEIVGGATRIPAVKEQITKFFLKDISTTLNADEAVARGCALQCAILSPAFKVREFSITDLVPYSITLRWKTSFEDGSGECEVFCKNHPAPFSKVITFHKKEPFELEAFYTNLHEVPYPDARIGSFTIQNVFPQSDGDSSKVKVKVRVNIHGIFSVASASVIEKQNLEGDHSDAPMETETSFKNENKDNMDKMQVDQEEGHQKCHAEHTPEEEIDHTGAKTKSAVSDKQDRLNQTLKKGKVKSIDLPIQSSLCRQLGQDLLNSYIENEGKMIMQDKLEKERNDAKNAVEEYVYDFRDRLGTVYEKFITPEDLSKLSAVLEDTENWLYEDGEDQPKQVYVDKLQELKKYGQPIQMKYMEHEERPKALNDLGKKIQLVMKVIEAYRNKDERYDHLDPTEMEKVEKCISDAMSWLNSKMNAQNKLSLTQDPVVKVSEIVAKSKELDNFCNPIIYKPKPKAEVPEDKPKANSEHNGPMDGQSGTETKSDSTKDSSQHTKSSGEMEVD
UniProt Q8TDG4: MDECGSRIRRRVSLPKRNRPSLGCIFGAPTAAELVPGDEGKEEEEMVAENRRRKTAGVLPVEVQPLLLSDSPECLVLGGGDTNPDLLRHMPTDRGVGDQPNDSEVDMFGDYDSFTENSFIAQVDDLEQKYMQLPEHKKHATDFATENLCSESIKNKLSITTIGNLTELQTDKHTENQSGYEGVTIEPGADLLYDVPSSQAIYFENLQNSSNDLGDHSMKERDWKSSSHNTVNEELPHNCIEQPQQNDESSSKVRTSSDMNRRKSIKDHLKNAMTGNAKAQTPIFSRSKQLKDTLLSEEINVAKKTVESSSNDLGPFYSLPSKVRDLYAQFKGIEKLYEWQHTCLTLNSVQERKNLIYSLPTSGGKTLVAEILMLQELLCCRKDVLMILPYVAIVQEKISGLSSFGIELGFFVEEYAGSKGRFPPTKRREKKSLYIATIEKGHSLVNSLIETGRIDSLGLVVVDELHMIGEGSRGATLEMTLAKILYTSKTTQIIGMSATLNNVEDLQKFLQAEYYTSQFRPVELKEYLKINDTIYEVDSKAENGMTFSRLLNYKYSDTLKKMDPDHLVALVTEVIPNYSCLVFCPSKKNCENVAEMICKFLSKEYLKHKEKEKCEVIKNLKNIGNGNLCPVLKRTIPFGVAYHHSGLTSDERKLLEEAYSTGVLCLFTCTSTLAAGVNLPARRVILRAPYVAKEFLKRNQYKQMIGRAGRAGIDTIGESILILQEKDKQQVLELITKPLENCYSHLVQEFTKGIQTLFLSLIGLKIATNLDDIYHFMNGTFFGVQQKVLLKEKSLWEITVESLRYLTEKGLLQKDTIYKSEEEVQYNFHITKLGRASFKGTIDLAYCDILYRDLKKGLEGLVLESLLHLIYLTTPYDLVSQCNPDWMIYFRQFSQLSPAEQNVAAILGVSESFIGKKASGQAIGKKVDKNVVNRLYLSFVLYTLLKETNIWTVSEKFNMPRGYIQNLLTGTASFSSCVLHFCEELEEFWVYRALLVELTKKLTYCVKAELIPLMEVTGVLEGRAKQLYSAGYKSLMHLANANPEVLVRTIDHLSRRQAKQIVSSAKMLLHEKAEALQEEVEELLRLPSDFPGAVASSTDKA

Columns and labels:
Assay in all cases: log2 fold change, soluble protein after heating vs DMSO (PISA); higher = thermal stabilisation; K562 lysate, 10 uM; active = over 0.2 and 3.5 SD of the protein, either way, in both replicates (recomputed)
[1] = compound: C1=CC=C(C=C1)[C@H](COC2=CC3=C(C=C2)NC(=O)N3)NC(=O)C4=CC=CN(C4=O)CC5=CC(=C(C=C5)F)F
In short: (§1)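 Values give the log-two fold change in thermal stability against solvent controls, from duplicates. Crude K562 extract at 1 mg/mL protein, made by dounce homogenisation in PBS pH 7.4 with 1 mM MgCl2, was treated with 10 μM compound for 30 min. After 3 min heating across 48°C-58°C, aliquots were pooled, adjusted to 0.5% NP-40 at 4°C and centrifuged at 21,000xg for 90 min. The supernatant was measured by TMTpro 16plex LC-MS/MS with channel sums equalised.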

[2] = compound: CC1=C(SC2=C1C(=N[C@H](C3=NN=C(N32)C)CC(=O)N)C4=CC=C(C=C4)Cl)C
In short: as §1

[3] = compound: CC1=C2C(=CC=C1)N=C(N(C2=O)C3=CC=CC=C3C)CN4C=NC5=C(N=CN=C54)N
In short: as §1

[4] = compound: Cc1sc2c(c1C)C(c1ccc(Cl)cc1)=N[C@@H](CC(=O)OC(C)(C)C)c1nnc(C)n1-2
In short: as §1

[5] = compound: c1ccc([C@@H]2C[C@H]2NC2CCNCC2)cc1
In short: as §1

Measured: log2 fold change

HNRNPLL (UniProt Q8WVV9)
inactive: [1] 0.018 | [2] 0.028 | [3] 0.007 | [4] 0.022 | [5] 0.036

HSPA13 (UniProt P48723)
inactive: [1] 0.012 | [2] 0.006 | [3] 0.009 | [4] -0.008 | [5] 0.019

HSPA14 (UniProt Q0VDF9)
inactive: [1] 0 | [2] 0.011 | [3] -0.004 | [4] 0.025 | [5] 0.017

HNRNPU (UniProt Q00839)
inactive: [1] -0.012 | [2] -0.01 | [3] -0.019 | [4] 0.012 | [5] 0.068

HNRNPA1 (UniProt H0YH80)
inactive: [1] -0.214 | [2] 0.187 | [3] 0.025 | [4] -0.207 | [5] -0.116

HNRNPD isoform 2 (UniProt Q14103)
inactive: [1] 0.059 | [2] -0.015 | [3] -0.01 | [4] 0.018 | [5] 0.125

HK2 (UniProt P52789)
inactive: [1] -0.021 | [2] -0.016 | [3] 0.043 | [4] 0.019 | [5] 0.063

HSPA1A (UniProt P0DMV8)
inactive: [1] 0.034 | [2] -0.026 | [3] 0.007 | [4] -0.005 | [5] 0.062

HPS4 isoform 4 (UniProt Q9NQG7)
inactive: [1] 0.011 | [2] 0.243 | [3] -0.053 | [4] 0.012

HMGN5 (UniProt Q5JSK9)
inactive: [1] -0.067 | [2] 0.015

HGH1 (UniProt Q9BTY7)
inactive: [1] -0.009 | [2] 0.006 | [3] 0.022 | [4] 0.043 | [5] 0.046

HMGN5 (UniProt P82970)
inactive: [1] 0.033 | [2] 0.05 | [3] -0.008 | [4] -0.026 | [5] 0.083

HSP90B1 (UniProt P14625)
inactive: [1] 0.025 | [2] -0.003 | [3] -0.011 | [4] 0.005 | [5] 0.016

HNRNPUL2 (UniProt Q1KMD3)
inactive: [1] 0.011 | [2] 0.016 | [3] 0.015 | [4] 0.007 | [5] 0.032

HLCS (UniProt P50747)
inactive: [1] -0.027 | [2] 0.027 | [3] 0.011 | [4] -0.006 | [5] 0.038

HSBP1 (UniProt O75506)
inactive: [1] 0.018 | [2] -0.102 | [3] 0.042 | [4] -0.035 | [5] 0.183

HJURP (UniProt Q8NCD3)
inactive: [1] -0.062 | [2] 0.042 | [3] -0.123 | [4] -0.212

HMGCS1 (UniProt Q01581)
inactive: [1] 0.043 | [2] -0.022 | [3] 0.02 | [4] 0.003 | [5] -0.009

HSPA4L (UniProt O95757)
inactive: [1] 0 | [2] -0.008 | [3] 0.02 | [4] -0.02 | [5] -0.01

HMG20A (UniProt Q9NP66)
inactive: [1] 0.063 | [2] 0.05 | [3] -0.04 | [4] -0.046 | [5] -0.004

HIST2H2BF isoform 2 (UniProt Q5QNW6)
inactive: [1] -0.027 | [2] 0.015 | [3] -0.041 | [4] 0.122 | [5] 0.068

HGS (UniProt O14964)
inactive: [1] -0.013 | [2] 0.021 | [3] 0.018 | [4] 0.014 | [5] -0.033

HEXIM1 (UniProt O94992)
inactive: [1] -0.001 | [2] 0.001 | [3] -0.051 | [4] -0.052 | [5] -0.032

HNRNPA2B1 (UniProt P22626)
inactive: [1] -0.01 | [2] 0.016 | [3] -0.006 | [4] 0.013 | [5] -0.008

HMGN2 (UniProt P05204)
inactive: [1] -0.004 | [2] -0.037 | [3] -0.032 | [4] -0.064 | [5] -0.034

Fetched one by one from the entries so far, two records:
HNRNPA2B1 (UniProt P22626)
inactive: [1] -0.01 | [2] 0.016 | [3] -0.006 | [4] 0.013 | [5] -0.008

HEXIM1 (UniProt O94992)
inactive: [1] -0.001 | [2] 0.001 | [3] -0.051 | [4] -0.052 | [5] -0.032

Additional results follow.

HIRIP3 (UniProt Q9BW71)
inactive: [1] 0.013 | [2] 0.005 | [3] -0.019 | [4] 0.003 | [5] 0.023

HEMGN (UniProt Q9BXL5)
inactive: [1] 0.018 | [2] -0.008 | [3] -0.02 | [4] 0.036 | [5] 0.026

HELQ (UniProt Q8TDG4)
inactive: [1] 0.033 | [2] 0.028 | [3] 0.005 | [4] -0.004 | [5] -0.074
